Binding data for 1 molecule are collected here from article PMC4742181.

Chains of the proteins cited; added tags and fusions are not shown. Lines headed by an entry give the natural chain unless they say otherwise; changes in a name come on top.
UniProt Q60932: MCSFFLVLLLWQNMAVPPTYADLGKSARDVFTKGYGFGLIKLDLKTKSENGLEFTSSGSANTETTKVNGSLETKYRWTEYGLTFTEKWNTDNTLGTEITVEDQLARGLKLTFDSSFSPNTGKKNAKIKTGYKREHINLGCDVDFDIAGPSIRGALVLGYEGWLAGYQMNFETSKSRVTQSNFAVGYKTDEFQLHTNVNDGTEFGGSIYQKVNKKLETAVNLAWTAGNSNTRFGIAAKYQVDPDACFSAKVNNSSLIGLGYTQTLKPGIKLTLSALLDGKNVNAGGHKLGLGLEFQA

The target in the experiment is voltage-dependent anion channel 1 (VDAC1) (mouse (endogenous in B16F10 and K1735M2)) (UniProt Q60932). Nature of the experiment: co-IP; endogenous proteins; cells lysed in CHAPS buffer (20 mM Tris-HCl pH 7.5, 150 mM NaCl, 1 mM EDTA, 2% CHAPS); antibody on protein A+G Sepharose, 800 μg protein, overnight, 4°C; western blot; B16F10 and K1735M2 cells with or without paclitaxel (100 nM, 24 h); also cells expressing ATF2^T52A, Mcl-1 shRNA, Z-VAD-fmk. For orientation: A western blot detects proteins with antibodies after separation by electrophoresis.

No constants are given. Whether binding was seen depends on the method and setting. Binding seen in cells or lysates may run through a third protein. A result given as binding can be weak or reduced; the word gives no strength.

B1: NOXA (protein, UniProt Q9JM54 1-103)
chain: MPGRKARRNAPVNPTRAELPPEFAAQLRKIGDKVYCTWSAPDITVVLAQMPGKSQKSRMRSPSPTRVPADLKDECAQLRRIGDKVNLRQKLLNLISKLFNLVT
Take B1: the binding entry is recorded as “binds weakly”.
